Reference: PubChem BioAssay AID1794845 (National Center for Advancing Translational Sciences (NCATS), 2023)
The whole screen tested about 6,900 compounds, of which fewer than 10 were called active. The call rests on the fitted dose curve; in most records, active means well fitted curve in the direction sought with a large enough effect; inconclusive means small, poorly fitted or top-dose-only effect, or another doubt; inactive means no such curve, though single readings can be large or run the other way. The list shows a part of the results.

Protein sequences, listed by entry. Tags and fused reporters are not part of them. Lines headed by an entry give the natural chain unless they say otherwise; changes in a name come on top.
UniProt C7C422: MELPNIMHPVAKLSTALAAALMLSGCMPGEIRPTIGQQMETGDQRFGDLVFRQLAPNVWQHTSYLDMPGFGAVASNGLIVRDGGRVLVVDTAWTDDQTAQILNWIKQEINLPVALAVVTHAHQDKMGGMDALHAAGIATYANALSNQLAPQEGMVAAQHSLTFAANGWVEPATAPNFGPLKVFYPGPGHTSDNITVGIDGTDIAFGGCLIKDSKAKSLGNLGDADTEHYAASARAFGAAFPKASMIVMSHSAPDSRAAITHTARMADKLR

Each compound was assayed against Metallo-beta-lactamase type 2 (Klebsiella pneumoniae) (UniProt C7C422) (assay: qHTS to identify inhibitors of the New Delhi Metallo-beta-lactamase (NDM): primary screen against the NCATS Gemini Collection). Conditions: NDM-1 enzyme, meropenem hydrolysis, absorbance 300 nm; at 38.4 µM (top of the series) unless noted.
Method in brief: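 Meropenem hydrolysis (50 uM final) by 2 nM NDM-1 read as 300 nm absorbance after 30 min, following >30 min compound–enzyme preincubation in HEPES pH 7.0 with 1 uM ZnSO4 and 0.01% Tween20.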
Further: % of control where 0% means no effect.

Structure (SMILES)	activity % (negative = inhibition)
COc1ccc(CN2C(=O)[C@@H]3C[C@@H](O)CN3C3(CN(C)C3)C2=O)cc1	inactive: 11.4% [at 57.5 µM]
COc1ccc(-c2ccc3ncn(C4CC4)c(=O)c3n2)cn1	inactive: 18.2% [at 57.5 µM]
Cc1nc([C@@H]2CN(S(=O)(=O)c3ccc4c(c3)CCCC4)C[C@H]2C(N)=O)n[nH]1	inactive: 0.242%
COc1ccccc1C(=O)N1CCCC(c2nnc3n2C(C(=O)O)CC3)C1 (configuration not stated)	inactive: 3.35%
O=C(NC1CC(=O)N(Cc2cccc(F)c2)C1)c1ccccc1-n1cccn1 (configuration not stated)	inactive: 5.36%
N#Cc1cccc(CN[C@H]2[C@H](O)[C@H](O)C[C@@H]2c2cccnc2)c1	inactive: -8.34% [at 57.5 µM]
COC[C@@H]1[C@H](NC(=O)c2csc(C)c2-c2ccccc2)[C@@H]2CCO[C@H]12	inactive: 3.58%
COc1ccc(CNC(=O)[C@@H](C)C2CC[C@@]3(C)CC[C@H](NC(=O)COc4ccccc4)[C@@H](C)[C@@H]3[C@H]2O)cc1 (some centres not stated)	inactive: 1.88%
CCC(=O)N1CCc2sc(C(=O)NCCCOC)cc2C1	inactive: 6.65%
Cc1nn(CC(=O)N2CCCCCC2)c(=O)c2nc(C(C)C)sc12	inactive: 12.4%
O=C(CCCn1cncn1)N1CCCC(CCc2ccccc2C(F)(F)F)C1 (configuration not stated)	inactive: 2.51%
O=C(NCC1CCN(c2cc(-c3ccccc3)[nH]n2)CC1)c1ccc2nc[nH]c2c1	inactive: 0.427%
O=C1CC(c2cn[nH]c2C(=O)O)c2c(n[nH]c2-c2cccs2)N1 (configuration not stated)	inactive: 23.5%
Cc1cc(C)cc(NC(=S)N[C@H]2CO[C@H]3[C@@H]2OC[C@H]3OC(=O)NC2CCCCC2)c1	inactive: 15.5% [at 57.5 µM]
Cn1cc(-c2cn(C)c(=O)n3cc(CNc4ccccc4)nc23)cn1	inactive: 13.2% [at 57.5 µM]
CCCS(=O)(=O)N1C[C@@H](Oc2cccnc2)C[C@H]1C(N)=O	inactive: -0.421%
C=CCOc1cccc(-c2nnc(CCC(=O)NC(C)CC)c(=O)[nH]2)c1 (configuration not stated)	inactive: 16.7%
c1cc2c(cc1-c1n[nH]c(C3CCOCC3)n1)OCO2	inactive: 5.77%
CCc1cc(CN(C)C(=O)C(c2ccc(C)cc2)N(C)C)on1 (configuration not stated)	inactive: 0.632%
COC(=O)CNC(=O)C1CCc2nnc(CNC(=O)NC(C)C)n21 (configuration not stated)	inactive: 7.35%
O=C(c1ccc[nH]1)N1CCC(n2cc(-c3nc(C4CC4)no3)nn2)C1 (configuration not stated)	inactive: -1.54%
C[C@@]12CCC(=O)C[C@@H]1C[C@H](OC(=O)Nc1ccccc1)CC2	inactive: 8.26%
COCCn1cnnc1CNc1cc(-c2ccncc2)nc2ccnn12	inactive: 13.5%
COCCN1CC2(CCC1=O)CCN(C(=O)[C@@H]1C[C@@H](O)CN1)CC2	inactive: 16.5%
Cn1nc2n(c1=O)CCC(NC(=O)c1n[nH]c3c1CC(C(C)(C)C)CC3)CC2 (configuration not stated)	inactive: 12.2%
O=C(NC1CCN(Cc2ccccc2)CC1)c1cccc2c1CCN2C(=O)c1ccccc1	inactive: 2.69%

Among those listed so far, two have a halogen.
Structure (SMILES)	activity % (negative = inhibition)
O=C(NC1CC(=O)N(Cc2cccc(F)c2)C1)c1ccccc1-n1cccn1 (configuration not stated)	inactive: 5.36%
O=C(CCCn1cncn1)N1CCCC(CCc2ccccc2C(F)(F)F)C1 (configuration not stated)	inactive: 2.51%

(cont.)

Structure (SMILES)	activity % (negative = inhibition)
COc1cc(OC)cc(-c2onc(C)c2C(=O)NCCC(c2ccccc2)c2ccccc2)c1	inactive: 1.93%
COCC1CCCN(C(=O)c2cc(Cn3c(C)nc4ccccc43)[nH]n2)C1 (configuration not stated)	inactive: 9.64%
O=C(C1CCc2nnc(-c3cccc(C(F)(F)F)c3)n21)N1CCCCC1 (configuration not stated)	inactive: -0.535%
CC(=O)N1CCN(Cc2ccccc2-c2cccnc2)CC1	inactive: 16.5% [at 57.5 µM]
O=C(C1CCCC1)N1C[C@@H](COc2ccncc2)[C@H](c2ccccn2)C1	inactive: 4.5%
COc1ccc(NC(=O)N2CCC3(CC2)SCC(=O)N3c2ccc(F)cc2)cc1	inactive: 79.9%
CCCc1ccc(-c2nc(C3CCOC3)no2)cc1 (configuration not stated)	inactive: 0.845%
COc1ncccc1-c1cc(-c2c(C)noc2C)c2cncn2c1	inactive: 15.3% [at 57.5 µM]
COC(=O)c1ccc(CNC(=O)CC2c3cccnc3C(=O)N2c2ccccc2)cc1 (configuration not stated)	inactive: 0.251% [at 16.1 µM]
Cc1nnc(-c2cc(-c3ccccc3Oc3ccccc3)ccn2)n1C	inactive: 24% [at 57.5 µM]
COC(=O)N1CCC2(C1)N=C(c1ccncc1)C(=O)N2 (configuration not stated)	inactive: 0.0551% [at 57.5 µM]
CCN(CC)C(=O)CC[C@@H]1CNC(=O)[C@@H]2C[C@H](NC(=O)Nc3ccsc3)CN12	inactive: 3.78% [at 57.5 µM]
O=C1CC(c2noc(-c3cccs3)n2)CN1C1CCCCC1 (configuration not stated)	inactive: -7.94%
C[C@@H](N)C(=O)N1CCC2(CC1)CC(=O)N(Cc1cc(F)cc(F)c1)C2	inactive: -4.75%
CN(C)[C@@H]1CO[C@H](CNC(=O)CC(C)(C)C)[C@H]1O	inactive: 0.831% [at 77.1 µM]
CCn1ncc(CN2C[C@@H](COC)[C@H](c3ccncc3)C2)c1C	inactive: -9.05%
NCCC(=O)N1CCCC(N2CCN(c3ccccc3F)CC2)C1 (configuration not stated)	inactive: 13.7%
Cc1ccsc1CN1CCCC(O)(CN(C)C)C1 (configuration not stated)	inactive: 0.158%
O=C(c1n[nH]c2c1CCCCCC2)N1CCc2c(nc3cc(-c4ccccc4)[nH]n3c2=O)C1	inactive: 7.89%
CC1=NS(=O)(=O)N(C)C=C1C(=O)OCc1noc(-c2ccco2)n1	inactive: 16.9%
CC1CCN(CCCNC(=O)C2CCc3sc(C(=O)N4CCCC4)cc3C2)CC1 (configuration not stated)	inactive: 4.94%
O=C(C1CCCN([S+](=O)([O-])c2cccc(C(F)(F)F)c2)C1)N1CCC(c2nc3ncccc3[nH]2)C1 (configuration not stated)	inactive: 3.41%
COc1ccc2c(c1)CCN=C2C[C@H]1CN(C(=O)c2ccc(F)cc2)CC[C@H]1CC(=O)O	inactive: 13.3% [at 57.5 µM]
C[C@H]1[C@@H]2[C@@H](O)C([C@H](C)C(=O)NCc3cccs3)CC[C@@]2(C)CC[C@@H]1NC(=O)COc1ccccc1 (some centres not stated)	inactive: 2.8%
O=C(NCc1ccc2c(c1)CCCO2)c1ccc(C2CCNC2)cc1 (configuration not stated)	inactive: -3.31%
O=C(NCC1(Cn2cccn2)CC1)c1ccc(C2CCNC2)cc1 (configuration not stated)	inactive: -2.79%

Two of the compounds above, with each value named.
COc1ncccc1-c1cc(-c2c(C)noc2C)c2cncn2c1
  activity % (negative = inhibition): inactive: 15.3% [at 57.5 µM]
COC(=O)c1ccc(CNC(=O)CC2c3cccnc3C(=O)N2c2ccccc2)cc1 (configuration not stated)
  activity % (negative = inhibition): inactive: 0.251% [at 16.1 µM]
